According to the supplement of paper PMC11732987, “Enantioselective OTUD7B fragment discovery through chemoproteomics screening and high-throughput optimisation” (Communications Chemistry, 2025):
This is one part of the list. The data scatter; read single values as rough.

Chains of the proteins cited; added tags and fusions are not shown. Lines headed by an entry give the natural chain unless they say otherwise; changes in a name come on top. Residues count along the entry.
UniProt Q9H6R3: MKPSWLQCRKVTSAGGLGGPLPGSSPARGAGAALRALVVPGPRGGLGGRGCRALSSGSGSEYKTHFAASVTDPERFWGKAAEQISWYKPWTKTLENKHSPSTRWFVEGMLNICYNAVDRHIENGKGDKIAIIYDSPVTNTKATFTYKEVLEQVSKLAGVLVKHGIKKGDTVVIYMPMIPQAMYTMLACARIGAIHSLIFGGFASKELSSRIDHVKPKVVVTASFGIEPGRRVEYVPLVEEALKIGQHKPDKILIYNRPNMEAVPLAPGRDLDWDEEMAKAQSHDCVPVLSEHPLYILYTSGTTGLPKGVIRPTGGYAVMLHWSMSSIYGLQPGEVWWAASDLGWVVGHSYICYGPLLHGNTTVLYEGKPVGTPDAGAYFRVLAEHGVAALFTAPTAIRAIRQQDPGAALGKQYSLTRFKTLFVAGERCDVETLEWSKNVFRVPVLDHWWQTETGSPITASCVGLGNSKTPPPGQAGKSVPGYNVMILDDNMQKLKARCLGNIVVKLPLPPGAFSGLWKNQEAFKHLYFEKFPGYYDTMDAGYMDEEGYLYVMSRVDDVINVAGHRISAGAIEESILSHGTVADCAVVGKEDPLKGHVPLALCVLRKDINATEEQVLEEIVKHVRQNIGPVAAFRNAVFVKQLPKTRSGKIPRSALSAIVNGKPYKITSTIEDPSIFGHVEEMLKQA
UniProt Q99996: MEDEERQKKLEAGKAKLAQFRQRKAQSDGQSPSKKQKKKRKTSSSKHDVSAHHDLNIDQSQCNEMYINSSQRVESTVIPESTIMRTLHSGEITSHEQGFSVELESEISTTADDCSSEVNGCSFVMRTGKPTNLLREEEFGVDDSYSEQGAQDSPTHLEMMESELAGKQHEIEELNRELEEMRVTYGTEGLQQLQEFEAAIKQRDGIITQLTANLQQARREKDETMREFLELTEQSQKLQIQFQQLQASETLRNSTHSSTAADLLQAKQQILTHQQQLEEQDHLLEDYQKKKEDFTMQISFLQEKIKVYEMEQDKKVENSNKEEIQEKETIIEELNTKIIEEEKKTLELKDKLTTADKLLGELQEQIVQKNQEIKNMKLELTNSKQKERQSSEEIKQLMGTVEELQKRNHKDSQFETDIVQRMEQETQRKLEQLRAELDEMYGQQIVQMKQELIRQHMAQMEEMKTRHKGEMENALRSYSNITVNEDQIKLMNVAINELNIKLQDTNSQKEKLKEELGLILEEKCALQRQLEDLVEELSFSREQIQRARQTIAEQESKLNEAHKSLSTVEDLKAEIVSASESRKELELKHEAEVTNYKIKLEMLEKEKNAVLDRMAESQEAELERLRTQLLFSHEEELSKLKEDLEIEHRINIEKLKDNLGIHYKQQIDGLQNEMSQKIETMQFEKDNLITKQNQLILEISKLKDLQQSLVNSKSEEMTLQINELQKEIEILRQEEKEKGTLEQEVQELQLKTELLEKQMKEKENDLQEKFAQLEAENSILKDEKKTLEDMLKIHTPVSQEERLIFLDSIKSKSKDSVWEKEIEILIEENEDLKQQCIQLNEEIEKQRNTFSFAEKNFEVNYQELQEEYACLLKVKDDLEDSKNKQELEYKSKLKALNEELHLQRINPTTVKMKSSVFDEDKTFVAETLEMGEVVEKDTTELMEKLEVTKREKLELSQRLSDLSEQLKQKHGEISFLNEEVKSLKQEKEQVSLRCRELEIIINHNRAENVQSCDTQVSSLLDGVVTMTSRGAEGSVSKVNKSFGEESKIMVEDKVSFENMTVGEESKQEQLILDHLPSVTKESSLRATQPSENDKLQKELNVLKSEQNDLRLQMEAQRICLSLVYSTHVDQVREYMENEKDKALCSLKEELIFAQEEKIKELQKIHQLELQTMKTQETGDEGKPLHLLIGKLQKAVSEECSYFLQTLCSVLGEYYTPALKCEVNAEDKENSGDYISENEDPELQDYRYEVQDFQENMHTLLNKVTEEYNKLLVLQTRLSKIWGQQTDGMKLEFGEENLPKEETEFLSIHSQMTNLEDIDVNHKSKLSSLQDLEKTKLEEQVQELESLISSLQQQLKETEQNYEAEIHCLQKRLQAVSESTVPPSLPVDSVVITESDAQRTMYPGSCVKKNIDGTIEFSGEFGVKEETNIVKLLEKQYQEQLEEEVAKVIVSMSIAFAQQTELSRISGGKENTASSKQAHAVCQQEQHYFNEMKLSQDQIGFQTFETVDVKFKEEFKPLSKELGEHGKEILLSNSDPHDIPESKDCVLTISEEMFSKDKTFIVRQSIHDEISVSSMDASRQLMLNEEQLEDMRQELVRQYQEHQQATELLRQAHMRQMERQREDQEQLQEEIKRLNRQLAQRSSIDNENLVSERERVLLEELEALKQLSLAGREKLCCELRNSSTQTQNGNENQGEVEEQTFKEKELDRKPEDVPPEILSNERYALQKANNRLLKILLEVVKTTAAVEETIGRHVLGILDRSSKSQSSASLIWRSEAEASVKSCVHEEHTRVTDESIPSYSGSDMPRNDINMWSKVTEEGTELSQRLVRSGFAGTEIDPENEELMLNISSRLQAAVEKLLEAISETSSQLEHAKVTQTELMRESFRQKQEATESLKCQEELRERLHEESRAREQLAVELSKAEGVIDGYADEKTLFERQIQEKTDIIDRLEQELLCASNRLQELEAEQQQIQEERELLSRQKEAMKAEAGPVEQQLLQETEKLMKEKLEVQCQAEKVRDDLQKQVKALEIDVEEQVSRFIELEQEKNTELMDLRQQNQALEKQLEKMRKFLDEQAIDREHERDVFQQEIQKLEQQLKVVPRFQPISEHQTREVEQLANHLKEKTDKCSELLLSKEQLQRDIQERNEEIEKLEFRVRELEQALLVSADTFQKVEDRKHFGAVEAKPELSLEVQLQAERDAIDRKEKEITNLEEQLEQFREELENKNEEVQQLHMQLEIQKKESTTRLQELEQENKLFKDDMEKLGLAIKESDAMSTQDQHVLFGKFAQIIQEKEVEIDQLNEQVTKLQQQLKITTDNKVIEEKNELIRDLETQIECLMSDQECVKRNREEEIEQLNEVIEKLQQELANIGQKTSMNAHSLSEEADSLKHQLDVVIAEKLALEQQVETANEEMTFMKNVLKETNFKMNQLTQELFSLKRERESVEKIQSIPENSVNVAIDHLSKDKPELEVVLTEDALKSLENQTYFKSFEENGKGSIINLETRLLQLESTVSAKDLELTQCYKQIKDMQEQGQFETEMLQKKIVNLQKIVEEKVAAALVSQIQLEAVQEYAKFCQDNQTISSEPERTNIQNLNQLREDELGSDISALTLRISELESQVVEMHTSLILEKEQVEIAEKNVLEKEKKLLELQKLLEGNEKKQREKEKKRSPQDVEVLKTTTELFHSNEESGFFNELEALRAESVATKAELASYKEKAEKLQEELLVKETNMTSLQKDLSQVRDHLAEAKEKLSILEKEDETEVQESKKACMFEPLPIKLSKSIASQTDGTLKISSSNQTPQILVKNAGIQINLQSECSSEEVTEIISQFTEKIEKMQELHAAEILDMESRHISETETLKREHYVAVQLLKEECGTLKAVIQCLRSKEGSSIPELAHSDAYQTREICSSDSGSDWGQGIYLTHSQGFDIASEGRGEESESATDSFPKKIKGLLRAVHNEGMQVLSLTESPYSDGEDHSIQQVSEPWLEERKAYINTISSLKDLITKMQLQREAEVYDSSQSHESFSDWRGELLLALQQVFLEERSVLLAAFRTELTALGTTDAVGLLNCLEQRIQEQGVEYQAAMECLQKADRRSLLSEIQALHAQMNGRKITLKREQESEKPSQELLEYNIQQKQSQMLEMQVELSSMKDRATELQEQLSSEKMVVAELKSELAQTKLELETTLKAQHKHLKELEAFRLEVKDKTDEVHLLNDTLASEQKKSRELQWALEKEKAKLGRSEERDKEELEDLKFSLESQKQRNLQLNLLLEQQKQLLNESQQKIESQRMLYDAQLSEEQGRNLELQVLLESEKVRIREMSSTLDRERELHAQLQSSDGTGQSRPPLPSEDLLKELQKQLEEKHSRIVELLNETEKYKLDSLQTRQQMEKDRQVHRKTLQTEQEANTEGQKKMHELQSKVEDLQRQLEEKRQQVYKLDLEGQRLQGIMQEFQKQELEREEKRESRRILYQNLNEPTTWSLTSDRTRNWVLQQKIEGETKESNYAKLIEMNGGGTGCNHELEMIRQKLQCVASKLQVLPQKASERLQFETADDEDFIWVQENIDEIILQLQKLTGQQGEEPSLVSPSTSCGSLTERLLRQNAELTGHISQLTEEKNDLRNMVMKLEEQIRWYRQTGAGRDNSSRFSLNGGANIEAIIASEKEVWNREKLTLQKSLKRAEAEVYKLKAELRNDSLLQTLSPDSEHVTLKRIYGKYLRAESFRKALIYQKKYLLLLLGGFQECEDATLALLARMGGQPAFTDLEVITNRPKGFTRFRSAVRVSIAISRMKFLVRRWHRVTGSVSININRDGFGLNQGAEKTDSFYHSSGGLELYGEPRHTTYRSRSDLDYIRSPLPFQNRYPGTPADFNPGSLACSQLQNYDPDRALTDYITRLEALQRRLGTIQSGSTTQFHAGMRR
UniProt O14734: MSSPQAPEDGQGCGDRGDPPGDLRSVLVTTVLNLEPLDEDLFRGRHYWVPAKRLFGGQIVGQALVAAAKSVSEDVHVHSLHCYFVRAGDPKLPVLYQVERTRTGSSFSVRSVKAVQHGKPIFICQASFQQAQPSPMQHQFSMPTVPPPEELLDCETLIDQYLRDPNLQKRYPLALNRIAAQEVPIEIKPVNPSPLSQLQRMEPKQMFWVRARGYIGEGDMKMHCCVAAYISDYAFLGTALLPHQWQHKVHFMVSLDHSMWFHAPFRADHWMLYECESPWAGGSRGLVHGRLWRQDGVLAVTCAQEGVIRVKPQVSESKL
UniProt Q9H9F9: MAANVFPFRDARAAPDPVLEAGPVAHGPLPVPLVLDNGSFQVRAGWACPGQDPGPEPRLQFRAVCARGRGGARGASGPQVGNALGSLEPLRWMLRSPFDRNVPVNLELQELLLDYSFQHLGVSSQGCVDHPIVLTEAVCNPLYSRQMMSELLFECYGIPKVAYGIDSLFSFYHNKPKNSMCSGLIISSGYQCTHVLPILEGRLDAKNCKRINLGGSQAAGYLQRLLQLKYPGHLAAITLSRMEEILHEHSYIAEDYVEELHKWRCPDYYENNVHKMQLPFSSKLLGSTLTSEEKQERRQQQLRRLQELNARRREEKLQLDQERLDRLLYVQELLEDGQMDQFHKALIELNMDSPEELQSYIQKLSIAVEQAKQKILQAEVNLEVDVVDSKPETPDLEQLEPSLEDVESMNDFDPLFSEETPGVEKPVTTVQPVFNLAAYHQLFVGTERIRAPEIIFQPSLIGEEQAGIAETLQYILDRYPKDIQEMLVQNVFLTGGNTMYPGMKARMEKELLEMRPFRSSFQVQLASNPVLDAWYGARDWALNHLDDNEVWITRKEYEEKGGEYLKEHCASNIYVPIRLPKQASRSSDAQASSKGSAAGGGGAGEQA
UniProt Q9UKA4, 214-234: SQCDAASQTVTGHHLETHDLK
UniProt P49189: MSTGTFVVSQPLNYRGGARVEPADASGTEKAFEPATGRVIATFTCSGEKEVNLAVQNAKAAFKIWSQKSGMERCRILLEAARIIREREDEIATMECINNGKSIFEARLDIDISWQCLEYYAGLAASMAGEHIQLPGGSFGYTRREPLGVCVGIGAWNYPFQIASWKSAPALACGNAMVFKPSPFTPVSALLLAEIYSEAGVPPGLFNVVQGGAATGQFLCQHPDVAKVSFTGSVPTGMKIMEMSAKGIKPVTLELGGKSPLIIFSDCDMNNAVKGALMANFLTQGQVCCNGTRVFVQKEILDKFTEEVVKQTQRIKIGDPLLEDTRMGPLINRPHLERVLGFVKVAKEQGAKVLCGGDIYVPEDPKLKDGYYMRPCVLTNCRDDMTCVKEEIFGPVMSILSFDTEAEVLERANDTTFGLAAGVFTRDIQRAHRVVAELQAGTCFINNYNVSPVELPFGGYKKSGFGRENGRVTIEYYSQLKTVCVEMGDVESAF
UniProt P30837: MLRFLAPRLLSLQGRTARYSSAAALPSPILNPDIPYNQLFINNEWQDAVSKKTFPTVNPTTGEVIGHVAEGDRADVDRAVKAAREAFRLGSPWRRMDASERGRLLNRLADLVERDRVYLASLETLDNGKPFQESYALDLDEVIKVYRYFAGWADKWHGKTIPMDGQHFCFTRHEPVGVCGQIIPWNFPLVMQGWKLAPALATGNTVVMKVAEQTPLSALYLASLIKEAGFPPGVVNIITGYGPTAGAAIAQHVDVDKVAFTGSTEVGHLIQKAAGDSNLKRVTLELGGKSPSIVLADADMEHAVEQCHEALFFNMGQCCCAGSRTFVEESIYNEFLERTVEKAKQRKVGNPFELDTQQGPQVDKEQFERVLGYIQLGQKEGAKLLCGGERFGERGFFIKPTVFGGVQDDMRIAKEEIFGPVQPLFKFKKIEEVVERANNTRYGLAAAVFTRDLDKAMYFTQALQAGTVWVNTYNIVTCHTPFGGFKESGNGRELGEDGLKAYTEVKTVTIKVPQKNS

compound: ClCC(=O)N[C@H]1CCCc2ccccc12; experiment: log2 mean competition ratio of IA-DTB cysteine labelling (DMSO/compound) (log2 ratio); higher = stronger cysteine engagement by compound; conditions: 50 µM; treatment time: 4 h; cell line lysate: HEK293T
Protocol: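 IA-DTB competitive cysteine chemoproteomics in HEK293T RIPA lysate. Lysates were treated with compound 29 or 30 at 50 or 200 µM for 4 h, then IA-DTB (500 µM, 1 h), trypsin-digested, NeutrAvidin-enriched and analysed by diaPASEF. Competition ratio = intensity DMSO / intensity compound (n=4 treated, n=64 DMSO); binding: mean log2 CR ≥ 1 and p ≤ 0.05 plus QC filters. Target is the cysteine site.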

Target | log2 mean competition ratio
ADNP2 C735 (UniProt Q6IQ32) | 0.404
AHDC1 C1461 (UniProt Q5TGY3) | 0.0275
ADD1 C525 (UniProt P35611) | 0.472
AFDN C960 | -0.132
ACSS3 C428 (UniProt Q9H6R3) | -0.00398
AKAP9 C2571 (UniProt Q99996) | 0.582
ADAM10 C435 (UniProt O14672) | -0.17
AHNAK C1833 (UniProt Q09666) | 0.133
ACLY C1040 (UniProt P53396) | 0.133
ACSL6 C625 (UniProt Q9UKU0) | -0.667
ACOT8 C302 (UniProt O14734) | -0.15
AGO2 C188 | 0.242
ACTR5 C48 (UniProt Q9H9F9) | 0.285
AMOTL1 C748 (UniProt Q8IY63) | -0.583
AKAP11 C216 (UniProt Q9UKA4) | -0.27
AGPAT5 C252 (UniProt Q9NUQ2) | -0.0113
ACTR6 C28 (UniProt Q9GZN1) | 0.137
ALDH9A1 C45 (UniProt P49189) | 0.0886
ALDH9A1 C267 (UniProt P49189) | -0.197
ALDH1B1 C386 (UniProt P30837) | 0.148

same assay, conditions: 200 µM; treatment time: 4 h; cell line lysate: HEK293T

Target | log2 mean competition ratio
ADNP2 C735 (UniProt Q6IQ32) | -0.137
AHDC1 C1461 (UniProt Q5TGY3) | 0.481
ADD1 C525 (UniProt P35611) | 0.236
AFDN C960 | 0.335
ACSS3 C428 (UniProt Q9H6R3) | -0.497
AKAP9 C2571 (UniProt Q99996) | 0.178
ADAM10 C435 (UniProt O14672) | -0.0437
AHNAK C1833 (UniProt Q09666) | -0.166
ACLY C1040 (UniProt P53396) | 0.078
ACSL6 C625 (UniProt Q9UKU0) | -0.099
ACOT8 C302 (UniProt O14734) | -0.111
AGO2 C188 | 0.0772
ACTR5 C48 (UniProt Q9H9F9) | 0.00868
AMOTL1 C748 (UniProt Q8IY63) | 0.631
AKAP11 C216 (UniProt Q9UKA4) | -0.235
AGPAT5 C252 (UniProt Q9NUQ2) | 0.173
ACTR6 C28 (UniProt Q9GZN1) | -0.137
ALDH9A1 C45 (UniProt P49189) | -0.272
ALDH9A1 C267 (UniProt P49189) | -0.179
ALDH1B1 C386 (UniProt P30837) | 0.671
